PubChem BioAssay AID743121, NCATS, 2013

- Purpose: 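Partners whose loss is lethal together with topoisomerase I blockade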 (primary screen)
- System: MDA-MB-231 cells, a human breast cancer line
- Knock-down reagent: single siRNA against human genes, 20 nM siRNA (0.8 pmol per well)
- Time to read-out: 120 h (drug added 48 h after transfection, read 72 h later)
- Treatment: camptothecin 20 nM (about EC30) for 72 h; vehicle 0.1% DMSO in parallel plates
- Measurement: 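CellTiter-Glo ATP signal, scaled to control siRNA as percent viability; sensitisation given as log2 of untreated divided by camptothecin-treated viability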
- Scale: log2 vehicle/camptothecin viability: higher = stronger sensitisation to camptothecin; viability with camptothecin and viability without drug: higher = more viable cells
- Active means: 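Each gene scored by redundant siRNA activity (RSA) over its individual siRNA ratios; a gene is called active at p < 0.001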
Shown is one part, drawn at random, of about 26,000 reagents tested. Over the whole deposit, 167 (0.63%) are marked active. 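Calls are per gene from RSA p-values that are not deposited; an individual active-marked siRNA can sensitise only weakly.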 Reagents against one gene are numbered here. Reagent sequences are not shown.

Target gene,reagent,log2 vehicle/camptothecin viability,viability with camptothecin (% of control),viability without drug (% of control),Call
MCHR2 (melanin concentrating hormone receptor 2),1,-0.356,96.8,75.6,inactive
MCHR2 (melanin concentrating hormone receptor 2),2,-0.293,72.7,59.4,inactive
MCHR2 (melanin concentrating hormone receptor 2),3,-0.052,109,105,inactive
MCHR2 (melanin concentrating hormone receptor 2),4,0.044,76.1,78.5,inactive
"ALPG (alkaline phosphatase, germ cell)",1,0.325,11.3,14.2,inactive
"ALPG (alkaline phosphatase, germ cell)",2,-0.0249,81.7,80.3,inactive
"ALPG (alkaline phosphatase, germ cell)",3,0.363,37.1,47.7,inactive
MYOG (myogenin),1,-0.138,90.2,81.9,inactive
MYOG (myogenin),2,0.0234,99.7,101,inactive
MYOG (myogenin),3,0.0523,55,57,inactive
MYOG (myogenin),4,1.16,23.7,52.9,inactive
KLRG2 (killer cell lectin like receptor G2),1,-0.0557,97.2,93.5,inactive
KLRG2 (killer cell lectin like receptor G2),2,-0.169,115,102,inactive
KLRG2 (killer cell lectin like receptor G2),3,-0.129,103,93.8,inactive
KLRG2 (killer cell lectin like receptor G2),4,-0.38,60.9,46.8,inactive
AREL1 (apoptosis resistant E3 ubiquitin protein ligase 1),1,-0.166,100,89.4,inactive
AREL1 (apoptosis resistant E3 ubiquitin protein ligase 1),2,0.577,14.5,21.6,inactive
AREL1 (apoptosis resistant E3 ubiquitin protein ligase 1),3,-0.694,17.5,10.8,inactive
SNX1 (sorting nexin 1),1,-0.0275,77.4,75.9,inactive
SNX1 (sorting nexin 1),2,-0.227,104,88.8,inactive
SNX1 (sorting nexin 1),3,0.23,69.4,81.4,inactive
SNX1 (sorting nexin 1),4,0.116,72.3,78.4,inactive
"IDO1 (indoleamine 2,3-dioxygenase 1)",1,0.76,49,82.9,inactive
"IDO1 (indoleamine 2,3-dioxygenase 1)",2,-0.12,73.2,67.4,inactive
"IDO1 (indoleamine 2,3-dioxygenase 1)",3,-0.23,88.5,75.5,inactive
"IDO1 (indoleamine 2,3-dioxygenase 1)",4,-0.42,34.4,25.7,inactive
RBM14 (RNA binding motif protein 14),1,0.0466,78.5,81.1,inactive
RBM14 (RNA binding motif protein 14),2,-0.339,67.7,53.5,inactive
RBM14 (RNA binding motif protein 14),3,-0.126,78.9,72.3,inactive
RBM14 (RNA binding motif protein 14),4,0.229,52,61,inactive
CXADR (CXADR cell adhesion molecule),1,-0.0933,62.6,58.7,inactive
CXADR (CXADR cell adhesion molecule),2,0.1,93.6,100,inactive
CXADR (CXADR cell adhesion molecule),3,0.17,91.6,103,inactive
CXADR (CXADR cell adhesion molecule),4,0.0265,68.1,69.4,inactive
FBXO11 (F-box protein 11),1,0.148,54.2,60.1,inactive
FBXO11 (F-box protein 11),2,-0.112,95.4,88.3,inactive
FBXO11 (F-box protein 11),3,-0.0524,38.8,37.4,inactive
FBXO11 (F-box protein 11),4,0.2,95.7,110,inactive

Records listed so far whose gene name begins with F or f:
Target gene,reagent,log2 vehicle/camptothecin viability,viability with camptothecin (% of control),viability without drug (% of control),Call
FBXO11 (F-box protein 11),1,0.148,54.2,60.1,inactive
FBXO11 (F-box protein 11),2,-0.112,95.4,88.3,inactive
FBXO11 (F-box protein 11),3,-0.0524,38.8,37.4,inactive
FBXO11 (F-box protein 11),4,0.2,95.7,110,inactive

The listing continues:
Target gene,reagent,log2 vehicle/camptothecin viability,viability with camptothecin (% of control),viability without drug (% of control),Call
ACVR1B (activin A receptor type 1B),1,-0.154,59.7,53.6,inactive
ACVR1B (activin A receptor type 1B),2,-0.0155,67.9,67.2,inactive
ACVR1B (activin A receptor type 1B),3,0.0139,105,106,inactive
ACVR1B (activin A receptor type 1B),4,-0.212,88.3,76.2,inactive
CFL2 (cofilin 2),1,-0.0281,112,110,inactive
CFL2 (cofilin 2),2,0.067,20.7,21.6,inactive
CFL2 (cofilin 2),3,0.102,82.1,88.1,inactive
CFL2 (cofilin 2),4,0.147,88,97.5,inactive
TRMT61A (tRNA methyltransferase 61A),1,-0.123,75.3,69.2,inactive
TRMT61A (tRNA methyltransferase 61A),2,-0.459,63.3,46,inactive
TRMT61A (tRNA methyltransferase 61A),3,-0.667,106,66.8,inactive
TRMT61A (tRNA methyltransferase 61A),4,-0.378,71.4,54.9,inactive
MS4A6A (membrane spanning 4-domains A6A),1,-0.102,85.3,79.5,inactive
MS4A6A (membrane spanning 4-domains A6A),2,0.392,68.2,89.5,inactive
MS4A6A (membrane spanning 4-domains A6A),3,0.333,24.8,31.2,inactive
RPSA2 (ribosomal protein SA 2),1,0.203,57,65.6,inactive
RPSA2 (ribosomal protein SA 2),2,0.151,36.7,40.7,inactive
RPSA2 (ribosomal protein SA 2),3,0.326,30.7,38.4,inactive
RPSA2 (ribosomal protein SA 2),4,-0.131,104,95.3,inactive
SLK (STE20 like kinase),1,-0.569,68.6,46.3,inactive
SLK (STE20 like kinase),2,-0.0747,85.7,81.4,inactive
SLK (STE20 like kinase),3,0.991,19.4,38.5,inactive
SLK (STE20 like kinase),4,-0.235,32.1,27.3,inactive
NSUN6 (NOP2/Sun RNA methyltransferase 6),1,-0.103,64.2,59.8,inactive
NSUN6 (NOP2/Sun RNA methyltransferase 6),2,0.0569,84.3,87.7,inactive
NSUN6 (NOP2/Sun RNA methyltransferase 6),3,0.0539,44.2,45.9,inactive
NSUN6 (NOP2/Sun RNA methyltransferase 6),4,0.114,37.1,40.2,inactive
MGST3 (microsomal glutathione S-transferase 3),1,-0.301,118,95.9,inactive
MGST3 (microsomal glutathione S-transferase 3),2,0.0877,92.2,98,inactive
MGST3 (microsomal glutathione S-transferase 3),3,-0.0375,47.1,45.9,inactive
MGST3 (microsomal glutathione S-transferase 3),4,0.158,107,119,inactive
